At least one structure is not confirmed: it was looked up by name or label, or the drawing left a doubt.
Columns and labels:
IL-1 = IL-1 inhibition, several studies in vitro and with animal models of osteoarthritis
From the text: (§1) This unique mechanism of action of diacerein was thought to explain, at least in part, its efficacy in the symptomatic treatment of osteoarthritis.

[1] = test system: prostaglandin biosynthesis; test: Inhibition of prostaglandin biosynthesis; assay type: biochemical
From the text: as §1

phospholipase pathway = test: Inhibitory effect on phospholipase pathway; assay type: biochemical
From the text: as §1

cyclooxygenase pathway = test: Inhibitory effect on cyclooxygenase pathway; assay type: biochemical
From the text: as §1

lipooxygenase pathway = test: Inhibitory effect on lipooxygenase pathway; assay type: biochemical
From the text: as §1

Compound: O=C(O)c1cc(O)c2c(c1)C(=O)c1cccc(O)c1C2=O [rhein]
- IL-1 inhibition (IL-1): is an IL-1 inhibitor
- inhibition of prostaglandin biosynthesis [1]: neither diacerein nor rhein inhibit
- inhibitory effect on the phospholipase pathway (phospholipase pathway): no inhibitory effect was detected
- inhibitory effect on the cyclooxygenase pathway (cyclooxygenase pathway): no inhibitory effect was detected
- inhibitory effect on the lipooxygenase pathway (lipooxygenase pathway): no inhibitory effect was detected

Source: patent publication US20020128317A1, “Treatment of pathological conditions characterized by an increased IL-1 level” (Laboratories NEGMA, priority 2001, published 2002)
